Counter-ions that a name gives are not always drawn. This is one part of the list. Repeats in this data set agree poorly, so a single value says little.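 Human kidney-derived cells stably carry a construct in which eight TEAD-binding elements drive luciferase, measured by luminescence in a drug-repurposing library screen. A hit is any compound whose signal exceeds the plate mean by more than five robust Z scores.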
System: HEK293A TEAD-LUC reporter
Test: TEAD-luciferase reporter activity (YAP activation), robust Z score vs plate; higher = stronger YAP/TEAD activation
Conditions: 24 h

| Structure (SMILES) | TEAD-luciferase reporter activity (compound concentration: 200 nM) | TEAD-luciferase reporter activity (compound concentration: 2 uM) | TEAD-luciferase reporter activity (compound concentration: 10 uM) |
| --- | --- | --- | --- |
| O=C(O)C1(CN2CCC(COc3noc4cccc(OCC(F)(F)F)c34)CC2)CCOCC1 | inactive: -0.968 | inactive: -0.0731 | inactive: 0.858 |
| COc1cc(-n2cnc3cc(-c4ccc(Cl)cc4)sc3c2=O)ccc1N1CC[C@@H](O)C1 | inactive: -0.728 | inactive: -0.757 | inactive: 1.1 |
| CN(C)c1ccccc1CS(=O)c1nc2ccccc2[nH]1 (centres undefined) | inactive: -0.797 | inactive: -1.24 | inactive: -0.382 |
| COc1ccc(/C=C/CCCCOc2ccc3c(=O)c4cc(C(=O)O)ccc4oc3c2CCC(=O)O)cc1 | inactive: -1.01 | inactive: 1.17 | inactive: -0.447 |
| COc1cc(C(C)C)c(Oc2cnc(N)nc2N)cc1S(N)(=O)=O | inactive: 3.64 | inactive: -1.9 | inactive: -0.116 |
| CN1CCC(=C(c2ccccc2)c2ccccc2)C1 | inactive: -0.173 | inactive: -1.51 | inactive: 2.88 |
| CCCOc1ccccc1-c1nc(O)c2nn[nH]c2n1 [zaprinast] | inactive: 2.33 | inactive: -0.694 | inactive: 0.664 |
| CCCCCCCCCCC(C)(C)C(=O)Nc1c(OC)cc(OC)cc1OC | inactive: -2.91 | inactive: -0.677 | inactive: 3.43 |
| O=P(O)(O)C(NC1CCCCCC1)P(=O)(O)O [incadronate disodium] | inactive: -0.581 | inactive: -0.557 | inactive: 0.281 |
| Cc1ccc(S(=O)(=O)CC(CC#Cc2ccc(Cl)cc2)C(=O)O)cc1 (centres undefined) | inactive: -0.758 | inactive: -0.828 | inactive: -0.459 |
| COCCOc1ccc(OCC(O)CNCCOc2ccc(C(N)=O)c(O)c2)cc1 (centres undefined) | inactive: -0.567 | inactive: -0.973 | inactive: -0.67 |
| CCCCOc1c(OCCCC)c(=O)c1=O [squaric acid dibutyl ester, Squarex] | – | inactive: -0.261 | – |
| CCCCOc1c(OCCCC)c(=O)c1=O | inactive: 4.44 | – | inactive: 0.481 |
| Cc1ccc(CCC(=O)N[C@H](CO)Cc2ccc(O)cc2)cc1 | inactive: -0.416 | inactive: 2.38 | inactive: -0.041 |
| CCN(CC)CC(C)(C)COC(=O)C(CO)c1ccccc1 (centres undefined) | inactive: -0.867 | inactive: 0.406 | inactive: -0.736 |
| N[C@@]1(C(=O)O)CC[C@H]2[C@H](C(=O)O)[C@H]21 [Eglumetad hydrate] | inactive: -0.922 | inactive: -0.939 | inactive: 0.551 |
| COc1cc(CN2CCN(CC(=O)O)CC2)cc(OC)c1OC | inactive: 3.06 | inactive: -0.856 | inactive: 1.86 |
| CC(C)(N)C(=O)N[C@@H](Cc1c[nH]cn1)C(=O)N[C@H](Cc1ccc2ccccc2c1)C(=O)N[C@H](Cc1ccccc1)C(=O)N[C@@H](CCCCN)C(N)=O [Ipamorelin] | inactive: 0.0662 | inactive: -0.438 | inactive: 0.337 |
| CC(C)(N)C(=O)N[C@@H](Cc1c[nH]cn1)C(=O)N[C@H](Cc1ccc2ccccc2c1)C(=O)N[C@H](Cc1ccccc1)C(=O)N[C@@H](CCCCN)C(N)=O [ipamorelin] | – | inactive: 0.43 | – |
| CCOCCn1nc(C(=O)O)c2nc(N(C)CC)nc(Nc3cc(C)ccn3)c21 | inactive: -1.29 | inactive: 0.582 | inactive: -1.41 |

Single records, as listed above.
CCN(CC)CC(C)(C)COC(=O)C(CO)c1ccccc1 (centres undefined) is listed with TEAD-luciferase reporter activity (compound concentration: 200 nM): inactive: -0.867; TEAD-luciferase reporter activity (compound concentration: 2 uM): inactive: 0.406; TEAD-luciferase reporter activity (compound concentration: 10 uM): inactive: -0.736
COc1cc(CN2CCN(CC(=O)O)CC2)cc(OC)c1OC is listed with TEAD-luciferase reporter activity (compound concentration: 200 nM): inactive: 3.06; TEAD-luciferase reporter activity (compound concentration: 2 uM): inactive: -0.856; TEAD-luciferase reporter activity (compound concentration: 10 uM): inactive: 1.86

The list continues.

| Structure (SMILES) | TEAD-luciferase reporter activity (compound concentration: 200 nM) | TEAD-luciferase reporter activity (compound concentration: 2 uM) | TEAD-luciferase reporter activity (compound concentration: 10 uM) |
| --- | --- | --- | --- |
| CCCNC(=O)c1nnc2c(-c3cc(OC)ccc3OC)cccc2c1N | inactive: 0.665 | inactive: -0.91 | inactive: 1.16 |
| NC(=O)c1ccccc1NC(=O)CCN1CCN(c2nsc3ccccc23)CC1 | inactive: -1.33 | inactive: -1.17 | inactive: -1.35 |
| Cc1ccc(S(=O)(=O)NC(=O)N2N=CCC2C)cc1 (centres undefined) | inactive: -0.84 | inactive: -1.4 | inactive: 1.26 |
| CCCC/N=C(/NCC)NC(=N)N | inactive: 0.278 | inactive: 0.298 | inactive: -0.735 |
| COC1=C(OC)C(=O)C(CCCCCCCCCC[P+](c2ccccc2)(c2ccccc2)c2ccccc2)=C(C)C1=O [mitoqui mesylate] | inactive: -1.42 | – | – |
| COC1=C(OC)C(=O)C(CCCCCCCCCC[P+](c2ccccc2)(c2ccccc2)c2ccccc2)=C(C)C1=O [mitoqui   mesylate] | – | – | inactive: -1.91 |
| COC1=C(OC)C(=O)C(CCCCCCCCCC[P+](c2ccccc2)(c2ccccc2)c2ccccc2)=C(C)C1=O [mitoqui    mesylate] | – | inactive: 0.138 | – |
| NC(=O)C1CC2(NC(=O)NC2=O)c2cc(F)ccc2O1 (centres undefined) [Fidarestat] | inactive: -0.343 | inactive: 1.17 | inactive: 1.32 |
| CN(C)[C@@H](CCOc1cccc2ccccc12)c1ccccc1 [dapoxetine] | inactive: -0.182 | inactive: -0.743 | inactive: 0.467 |
| c1ccc(OCC2=NNc3ccncc3N2)cc1 [oxifungin] | inactive: -2.11 | inactive: 0.862 | inactive: -0.406 |
| O=C(Nc1ccc(Cl)cc1)Nc1ccc(Cl)c(Cl)c1 | inactive: 0.101 | inactive: 0.808 | inactive: 1.41 |
| CC(C)(C)c1ccc(C2=NC3(O)c4ccccc4CC3S2)cc1 (centres undefined) | inactive: -2.23 | inactive: -2.53 | inactive: -0.0338 |
| CN(C)CCSc1nc2ccccc2cc1-c1ccccc1 | inactive: 0.346 | inactive: -0.735 | inactive: 1.03 |
| CCN1CCCCC12Cc1ccccc1CN(C(=O)C(C)C)C2 (centres undefined) | inactive: -2.69 | – | inactive: -0.479 |
| O=C(NCCCOc1cccc(CN2CCCCC2)c1)C12C3C4C5C3C1C(Br)(C42)C51OCCO1 (centres undefined) | inactive: 1.24 | – | inactive: 2.75 |
| O=C(NCCCOc1cccc(CN2CCCCC2)c1)C12C3C4C5C3C1C(Br)(C42)C51OCCO1 (centres undefined) [analog of SWR 104SA] | – | inactive: -0.114 | – |
| COCCCOc1cc(C[C@@H](CC(N)[C@@H](O)C[C@H](C(=O)NCC(C)(C)C(N)=O)C(C)C)C(C)C)ccc1OC (some centres undefined) | inactive: -1.43 | inactive: 0.26 | active: 12 |
| CN1CCN(c2c(F)cc3c(=O)c(C(=O)O)cn4c3c2OCN4C)CC1 [Marbofloxacin] | inactive: -1.66 | inactive: -0.0957 | inactive: 0.665 |
| COc1ccc(NC(=N)Nc2ccc3c4c(cccc24)CC3)c2ccccc12 | inactive: -0.547 | inactive: 1.12 | inactive: 1.18 |
| CNCCc1nc2ccccc2n1CCOC | inactive: 0.289 | inactive: -1.37 | inactive: -1.12 |

| Structure (SMILES) | TEAD-luciferase reporter activity (compound concentration: 200 nM) | TEAD-luciferase reporter activity (compound concentration: 2 uM) | TEAD-luciferase reporter activity (compound concentration: 10 uM) |
| --- | --- | --- | --- |
| CS(=O)(=O)c1ccc(C2=C(c3ccc(F)cc3)CC3(CC3)C2)cc1 | inactive: -2.81 | inactive: 0.844 | inactive: 0.639 |
| CC(C)C[C@@H]1NC(=O)[C@H](Cc2ccccc2)NC(=O)[C@H](Cc2ccc(O)cc2)NC(=O)CCSSC[C@@H](C(=O)N2CCC[C@H]2C(=O)N[C@@H](CCCCN)C(=O)NCC(N)=O)NC(=O)[C@H](CC(N)=O)NC1=O | inactive: -0.834 | inactive: -1.14 | inactive: 0.489 |
| CNC1CCc2ncsc2C1 (centres undefined) | inactive: 1.17 | inactive: -1.73 | inactive: -0.369 |
| C=CCC(N)c1ccccc1-c1noc2ccccc12 (centres undefined) | inactive: 0.374 | inactive: 0.105 | inactive: -0.394 |
| COC(=O)CC1C[C@@H](COc2ccc(-c3ccc(C(=N)NC(=O)OC)cc3)cc2)NC1=O (some centres undefined) | inactive: -0.785 | inactive: 0.0115 | inactive: -1.8 |
| O=C(CCCc1ccccc1)OCC(COC(=O)CCCc1ccccc1)OC(=O)CCCc1ccccc1 [Glycerol phenylbutyrate] | inactive: 0.63 | inactive: -1.36 | inactive: -0.899 |
| NS(=O)(=O)c1cc2c(cc1Cl)NC(C1CC3C=CC1C3)NS2(=O)=O (centres undefined) [Cyclothiazide] | inactive: -1.29 | inactive: -2.44 | inactive: -0.0139 |
| O=C1NC2(CN(Cc3ccccc3)C2)Oc2ccccc21 | inactive: -1.35 | – | inactive: -0.455 |
| Cc1cccc(C)c1OCC(C)N (centres undefined) | inactive: -2.75 | – | inactive: -0.883 |
| Cc1cccc(C)c1OCC(C)N [(S)-mexiletine] | – | inactive: -1.75 | – |
| CC1CCCC(C)N1CCCCNC(=O)C(Oc1ccccc1)c1ccccc1 (centres undefined) | inactive: -0.744 | inactive: -0.484 | inactive: -0.337 |
| C[S+](C)[O-] [Place Holder for Patent Registration] | inactive: -0.855 | – | inactive: 0.406 |
| CC(C)c1cc(CNc2nc(Nc3cc(C4CC4)[nH]n3)cc(N3CCN(C)CC3)n2)on1 | inactive: 0.391 | inactive: -1.63 | inactive: -2.39 |
| O=C(Nc1cc(C(F)(F)F)ccc1C(F)(F)F)c1cc(Br)cc(Br)c1O [analog of IMD-0560] | inactive: -0.739 | inactive: -2.34 | inactive: -1.35 |
| N=C(N)NCCCCCC(=O)O | inactive: 2.6 | inactive: -1.32 | inactive: 0.403 |
| O=C(Cn1c(Cl)cnc(NCC(F)(F)c2ccccn2)c1=O)NCc1ncccc1F | inactive: 1.42 | inactive: -1.05 | inactive: -0.657 |
| CO/N=C(\C(=O)N[C@@H]1C(=O)N2C(C(=O)[O-])=C(C[n+]3ccc(-c4cnco4)cc3)CS[C@H]12)c1csc(N)n1 | inactive: -1.51 | inactive: 1.44 | inactive: -0.105 |
| Nc1ccc(C(=O)N2C[C@@H]3C[C@@H](CN(Cc4ccccc4)C3)C2)cc1 | inactive: 1.51 | inactive: -0.943 | inactive: -0.218 |
